These are yes or no findings as the source states them, for the method shown. In cells and extracts the contact can be indirect. Binding calls can cover weak binding; strength is not graded here. Tags and fused reporters may be left off the sequences shown.
Target: T1, human ZDHHC6 (WT), Myc-tagged (human) (UniProt Q9H6R6)
T1 sequence: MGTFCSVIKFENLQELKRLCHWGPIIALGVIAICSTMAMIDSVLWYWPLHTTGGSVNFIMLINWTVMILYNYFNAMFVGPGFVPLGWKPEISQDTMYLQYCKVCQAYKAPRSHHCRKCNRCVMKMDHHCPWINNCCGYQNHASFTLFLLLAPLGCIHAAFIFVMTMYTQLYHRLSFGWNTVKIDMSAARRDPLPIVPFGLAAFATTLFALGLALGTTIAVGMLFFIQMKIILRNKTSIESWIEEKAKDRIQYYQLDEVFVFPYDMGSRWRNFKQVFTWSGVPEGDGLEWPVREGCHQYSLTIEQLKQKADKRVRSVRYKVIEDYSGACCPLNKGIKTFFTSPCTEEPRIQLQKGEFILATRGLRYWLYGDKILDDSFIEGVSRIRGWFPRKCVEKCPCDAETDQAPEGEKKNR
Assay: co-IP; HeLa co-transfected with myc-DHHC6 and flag-tagged DHHC16 for 24 hr; immunoprecipitated with myc or flag antibodies, immunoblot with anti-myc or anti-flag; lysis in 0.5% Nonidet P-40, 500 mM Tris pH 7.4, 20 mM EDTA, 4°C

human FLAG-ZDHHC16 (enzyme)
binding: binds
